Laboratory results from PMC11157765.

Protein sequences, listed by entry. Tags and fused reporters are not part of them. Residues count along the entry.
UniProt Q6UX06, residues 21-510: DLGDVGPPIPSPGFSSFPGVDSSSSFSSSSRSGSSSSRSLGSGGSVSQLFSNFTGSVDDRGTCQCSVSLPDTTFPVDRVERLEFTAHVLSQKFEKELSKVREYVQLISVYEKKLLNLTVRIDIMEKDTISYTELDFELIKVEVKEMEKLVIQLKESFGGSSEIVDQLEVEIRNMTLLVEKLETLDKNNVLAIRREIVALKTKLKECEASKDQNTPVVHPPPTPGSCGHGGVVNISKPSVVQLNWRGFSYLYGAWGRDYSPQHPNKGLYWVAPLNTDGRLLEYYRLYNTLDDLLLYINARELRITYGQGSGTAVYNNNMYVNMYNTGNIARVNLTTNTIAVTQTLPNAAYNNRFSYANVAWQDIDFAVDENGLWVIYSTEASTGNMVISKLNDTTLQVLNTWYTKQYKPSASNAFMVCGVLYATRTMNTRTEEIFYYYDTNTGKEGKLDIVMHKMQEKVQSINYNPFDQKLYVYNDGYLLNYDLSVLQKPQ
UniProt P35579: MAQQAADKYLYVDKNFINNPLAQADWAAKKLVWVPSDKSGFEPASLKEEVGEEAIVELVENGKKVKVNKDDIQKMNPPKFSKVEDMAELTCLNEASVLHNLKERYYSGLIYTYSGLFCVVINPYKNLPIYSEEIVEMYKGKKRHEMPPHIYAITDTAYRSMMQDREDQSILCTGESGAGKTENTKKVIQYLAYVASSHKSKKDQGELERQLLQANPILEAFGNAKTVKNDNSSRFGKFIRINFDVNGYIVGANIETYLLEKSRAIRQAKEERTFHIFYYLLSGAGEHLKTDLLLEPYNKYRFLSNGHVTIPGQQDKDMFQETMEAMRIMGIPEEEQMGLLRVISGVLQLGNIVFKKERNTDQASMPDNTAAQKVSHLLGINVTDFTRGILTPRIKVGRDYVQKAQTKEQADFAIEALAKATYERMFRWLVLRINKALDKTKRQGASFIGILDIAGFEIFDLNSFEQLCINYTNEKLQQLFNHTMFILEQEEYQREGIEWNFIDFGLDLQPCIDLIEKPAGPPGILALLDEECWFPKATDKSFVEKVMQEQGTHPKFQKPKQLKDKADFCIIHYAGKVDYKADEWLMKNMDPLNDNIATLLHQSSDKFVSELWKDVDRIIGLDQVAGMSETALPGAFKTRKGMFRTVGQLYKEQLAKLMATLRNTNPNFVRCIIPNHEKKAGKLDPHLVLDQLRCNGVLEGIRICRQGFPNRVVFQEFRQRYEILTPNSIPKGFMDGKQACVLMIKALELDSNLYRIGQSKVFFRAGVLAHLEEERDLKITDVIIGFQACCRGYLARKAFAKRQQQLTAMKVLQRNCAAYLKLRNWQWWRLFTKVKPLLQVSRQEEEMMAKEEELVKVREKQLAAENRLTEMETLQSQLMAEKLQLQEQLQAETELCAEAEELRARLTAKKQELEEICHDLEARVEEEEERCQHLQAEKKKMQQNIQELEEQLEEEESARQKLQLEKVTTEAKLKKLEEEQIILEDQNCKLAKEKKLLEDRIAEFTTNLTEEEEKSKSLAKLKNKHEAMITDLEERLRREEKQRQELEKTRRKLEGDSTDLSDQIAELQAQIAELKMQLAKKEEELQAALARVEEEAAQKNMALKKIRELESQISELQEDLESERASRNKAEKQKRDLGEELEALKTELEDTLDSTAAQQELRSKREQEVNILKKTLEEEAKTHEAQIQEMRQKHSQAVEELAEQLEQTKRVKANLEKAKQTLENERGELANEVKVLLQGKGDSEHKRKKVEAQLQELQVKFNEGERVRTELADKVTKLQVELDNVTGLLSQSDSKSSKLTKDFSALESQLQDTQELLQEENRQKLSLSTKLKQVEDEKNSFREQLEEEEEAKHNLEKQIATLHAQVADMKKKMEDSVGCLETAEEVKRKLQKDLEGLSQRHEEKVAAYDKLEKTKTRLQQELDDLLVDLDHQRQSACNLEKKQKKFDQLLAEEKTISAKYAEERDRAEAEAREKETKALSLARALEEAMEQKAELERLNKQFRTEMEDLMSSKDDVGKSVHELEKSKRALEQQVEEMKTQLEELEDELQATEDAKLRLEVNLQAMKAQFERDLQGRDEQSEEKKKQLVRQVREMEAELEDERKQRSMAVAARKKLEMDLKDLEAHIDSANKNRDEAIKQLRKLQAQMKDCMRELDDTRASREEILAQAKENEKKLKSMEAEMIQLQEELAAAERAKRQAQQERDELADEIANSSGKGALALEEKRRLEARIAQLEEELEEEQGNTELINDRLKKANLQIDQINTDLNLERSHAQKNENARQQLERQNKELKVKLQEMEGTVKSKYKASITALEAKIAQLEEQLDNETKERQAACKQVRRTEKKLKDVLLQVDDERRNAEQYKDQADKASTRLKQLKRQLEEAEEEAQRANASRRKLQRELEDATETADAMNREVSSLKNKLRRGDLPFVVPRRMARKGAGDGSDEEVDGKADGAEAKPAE
UniProt P35580: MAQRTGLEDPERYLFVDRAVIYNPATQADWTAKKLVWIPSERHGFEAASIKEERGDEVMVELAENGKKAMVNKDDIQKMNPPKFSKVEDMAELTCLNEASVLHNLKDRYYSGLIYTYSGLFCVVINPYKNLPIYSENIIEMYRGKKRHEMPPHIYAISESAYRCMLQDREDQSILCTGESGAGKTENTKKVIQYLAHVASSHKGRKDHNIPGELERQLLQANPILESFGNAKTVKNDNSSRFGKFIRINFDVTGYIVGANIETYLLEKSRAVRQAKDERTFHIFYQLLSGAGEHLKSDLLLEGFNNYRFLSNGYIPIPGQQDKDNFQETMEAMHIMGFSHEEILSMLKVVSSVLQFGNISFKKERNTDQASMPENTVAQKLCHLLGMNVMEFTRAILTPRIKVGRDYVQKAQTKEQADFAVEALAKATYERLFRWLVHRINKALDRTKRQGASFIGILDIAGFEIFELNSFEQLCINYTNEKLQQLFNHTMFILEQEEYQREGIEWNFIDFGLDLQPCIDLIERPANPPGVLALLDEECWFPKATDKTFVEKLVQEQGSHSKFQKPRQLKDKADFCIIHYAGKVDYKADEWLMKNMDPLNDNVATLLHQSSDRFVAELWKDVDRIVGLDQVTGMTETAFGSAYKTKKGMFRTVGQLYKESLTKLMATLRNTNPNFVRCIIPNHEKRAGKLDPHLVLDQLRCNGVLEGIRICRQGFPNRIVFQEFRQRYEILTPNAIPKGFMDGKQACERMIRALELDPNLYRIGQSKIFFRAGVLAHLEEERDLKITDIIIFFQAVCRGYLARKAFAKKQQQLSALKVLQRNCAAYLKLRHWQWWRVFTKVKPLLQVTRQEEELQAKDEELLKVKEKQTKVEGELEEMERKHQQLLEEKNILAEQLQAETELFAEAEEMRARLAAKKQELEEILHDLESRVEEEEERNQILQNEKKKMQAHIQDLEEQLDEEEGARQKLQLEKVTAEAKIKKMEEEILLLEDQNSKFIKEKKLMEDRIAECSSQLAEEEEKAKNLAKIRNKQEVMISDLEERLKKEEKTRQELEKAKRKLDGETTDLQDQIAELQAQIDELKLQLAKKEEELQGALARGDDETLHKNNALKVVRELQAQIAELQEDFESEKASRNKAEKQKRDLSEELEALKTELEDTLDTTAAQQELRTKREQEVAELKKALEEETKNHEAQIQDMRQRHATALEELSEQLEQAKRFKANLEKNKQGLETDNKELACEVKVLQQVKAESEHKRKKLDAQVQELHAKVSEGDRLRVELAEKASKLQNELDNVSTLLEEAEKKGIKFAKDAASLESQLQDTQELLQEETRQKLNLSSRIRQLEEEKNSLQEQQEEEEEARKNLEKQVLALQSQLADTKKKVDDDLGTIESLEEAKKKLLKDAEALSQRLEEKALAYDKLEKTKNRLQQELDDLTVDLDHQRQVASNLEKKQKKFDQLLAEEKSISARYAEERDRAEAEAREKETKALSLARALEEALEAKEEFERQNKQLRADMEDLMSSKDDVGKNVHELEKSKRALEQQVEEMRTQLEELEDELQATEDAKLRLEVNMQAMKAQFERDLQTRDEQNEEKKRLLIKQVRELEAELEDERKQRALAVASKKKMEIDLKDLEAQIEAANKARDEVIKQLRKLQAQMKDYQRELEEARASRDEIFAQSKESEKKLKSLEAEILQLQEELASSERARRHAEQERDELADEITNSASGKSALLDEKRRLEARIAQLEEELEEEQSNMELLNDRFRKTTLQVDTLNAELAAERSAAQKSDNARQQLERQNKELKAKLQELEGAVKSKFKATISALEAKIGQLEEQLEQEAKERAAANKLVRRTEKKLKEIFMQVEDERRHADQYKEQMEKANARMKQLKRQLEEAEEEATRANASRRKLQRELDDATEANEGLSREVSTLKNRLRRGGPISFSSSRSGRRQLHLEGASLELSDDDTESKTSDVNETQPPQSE

Target: Olfactomedin-4 (OLFM4) (UniProt Q6UX06)
Assay: affinity purification with mass spectrometry; Co-IP with the OLFM4 antibody (14369S, CST) and Protein A/G magnetic beads, then mass spectrometry; cells not given

| binding | Substance |
| --- | --- |
| binds | FLNA (from UniProt P21333 1-2647) |
| binds | Myosin heavy chain 9 (MYH9) (from UniProt P35579 1-1960) |
| binds | MYH10 (from UniProt P35580 1-1976) |

These are yes or no findings as the source states them, for the method shown. Binding seen in cells or lysates may run through a third protein. Here binding means that the protein was enriched with, or labelled near, the bait; the list need not be complete.
